Molecules are shown by their SMILES. The list shows a part of the results, in another mix than the full data. Calls of active or inactive are those of the source. No stated cut-off is given here; in the data, active means IC50 below about 20 µM; inactive means the rest.

The results in this text go back to PubChem BioAssay AID651561 (Sanford-Burnham Center for Chemical Genomics, 2012).

The nature of this experiment: blockers of mitochondrial swelling via MPTP – biochemical, absorbance, uHTS hits, dose response (AID 651561). As to conditions: isolated mitochondria swelling.

What is called IC50 is the concentration at which inhibition is half-maximal. As to `CNCCCC12CCC(c3ccccc31)c1ccccc12`, the IC50 was active: 4.28 µM.
